# Results taken from article PMC7810945.
# Chains of the proteins cited; added tags and fusions are not shown. Lines headed by an entry give the natural chain unless they say otherwise; changes in a name come on top.
# UniProt P15806: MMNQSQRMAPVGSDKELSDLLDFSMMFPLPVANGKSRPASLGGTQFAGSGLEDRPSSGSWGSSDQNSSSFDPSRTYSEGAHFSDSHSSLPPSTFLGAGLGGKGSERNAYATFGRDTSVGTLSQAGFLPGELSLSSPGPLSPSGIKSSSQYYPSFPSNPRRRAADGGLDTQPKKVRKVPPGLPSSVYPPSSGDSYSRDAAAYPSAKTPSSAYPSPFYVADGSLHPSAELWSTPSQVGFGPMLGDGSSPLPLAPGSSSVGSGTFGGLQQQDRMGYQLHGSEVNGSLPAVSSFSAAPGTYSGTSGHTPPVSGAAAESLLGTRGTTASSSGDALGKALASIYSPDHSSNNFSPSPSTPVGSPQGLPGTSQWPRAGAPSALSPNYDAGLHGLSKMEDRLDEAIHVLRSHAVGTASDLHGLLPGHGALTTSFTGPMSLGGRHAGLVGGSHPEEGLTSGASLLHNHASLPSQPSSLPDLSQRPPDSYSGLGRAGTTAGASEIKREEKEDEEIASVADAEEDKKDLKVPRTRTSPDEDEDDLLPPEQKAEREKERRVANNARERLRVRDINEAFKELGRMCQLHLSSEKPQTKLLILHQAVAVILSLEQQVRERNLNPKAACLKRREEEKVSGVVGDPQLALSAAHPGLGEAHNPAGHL
# No constants are given. Whether binding was seen depends on the method and setting. In cells and extracts the contact can be indirect. Binding can be weak; no strength is given. Tags and fused reporters may be left off the sequences shown.
# Biological target: Flag‐E47 (UniProt P15806)
# Assay: co-IP; total lysates of transfected HEK293T cells or of transfected P19EC cells treated with 1 µmol/L ATRA for 24 h; anti‐Myc or anti‐FLAG antibody on Dynabeads protein G, 2 h at 4°C; 50 mmol/L Tris‐HCl pH 7.6, 150 mmol/L NaCl, 2 mmol/L EDTA, 0.5% NP‐40, 3% glycerol
binder,measurement,value
"Myc‐STRA8 (pcDNA3‐Myc‐STRA8) in HEK293T cells (protein, UniProt P70278 1-393) MATPGEGNQPSDDGAPQPLAQLQKLEPRVVRRRLSQARHRATLVGLFNNLRKAVYSQSDITASKWQVLNRTKIHIQEQEESLDKLLKLKASFNLQDGNPNSLEEVKEEYARMYSENDSVFLNSFLQDSPPEWFPSEAVGPDAEEEGEEEGEEEGEEGEEEEEGDEEGEEEEENGEEREVEEYQEEEEEEEEEEKKVDLSHSSSTLLPDLMEFERYLNFYKQTMDLLTMNSIISAHEVTLPIVSAAISHLWQTLSEEKKARLLQVWEQQHSAFADLTEACLELAGVEGSMKDSGVDSQGASCSLESTPEEILFEDAFDVASFLDKSEAQHMSNISAMFATCNSENPEEKFQLYIQIIEFFKSLGCVNTPLNQEPEPPDDDDAMLLKCLETFDDL",binding,binds
